For assay [1], the target named is Leukemia-Related Protein 16 (LRP16), endogenous (human (endogenous in SW480, SW620, HCT116)) (UniProt Q9BQ69). The assay can be described thus: affinity purification with mass spectrometry; total lysate of SW620 cells, affinity purification with an anti-LRP16 antibody, SDS-PAGE, silver stain, bands excised, LC–MS/MS.
The target is the same in assay [2]. The description is as above. The source holds these as a separate data set.

Chains of the proteins cited; added tags and fusions are not shown.
UniProt Q9BQ69: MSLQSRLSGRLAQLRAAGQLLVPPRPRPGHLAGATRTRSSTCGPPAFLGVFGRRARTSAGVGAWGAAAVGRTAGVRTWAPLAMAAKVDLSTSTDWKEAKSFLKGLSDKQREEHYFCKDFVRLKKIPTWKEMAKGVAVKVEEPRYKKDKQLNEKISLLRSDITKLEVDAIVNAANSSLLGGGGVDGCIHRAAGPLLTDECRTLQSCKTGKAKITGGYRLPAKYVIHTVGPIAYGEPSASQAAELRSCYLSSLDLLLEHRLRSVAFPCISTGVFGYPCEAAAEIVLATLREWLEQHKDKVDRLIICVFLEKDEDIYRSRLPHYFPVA
UniProt P19525: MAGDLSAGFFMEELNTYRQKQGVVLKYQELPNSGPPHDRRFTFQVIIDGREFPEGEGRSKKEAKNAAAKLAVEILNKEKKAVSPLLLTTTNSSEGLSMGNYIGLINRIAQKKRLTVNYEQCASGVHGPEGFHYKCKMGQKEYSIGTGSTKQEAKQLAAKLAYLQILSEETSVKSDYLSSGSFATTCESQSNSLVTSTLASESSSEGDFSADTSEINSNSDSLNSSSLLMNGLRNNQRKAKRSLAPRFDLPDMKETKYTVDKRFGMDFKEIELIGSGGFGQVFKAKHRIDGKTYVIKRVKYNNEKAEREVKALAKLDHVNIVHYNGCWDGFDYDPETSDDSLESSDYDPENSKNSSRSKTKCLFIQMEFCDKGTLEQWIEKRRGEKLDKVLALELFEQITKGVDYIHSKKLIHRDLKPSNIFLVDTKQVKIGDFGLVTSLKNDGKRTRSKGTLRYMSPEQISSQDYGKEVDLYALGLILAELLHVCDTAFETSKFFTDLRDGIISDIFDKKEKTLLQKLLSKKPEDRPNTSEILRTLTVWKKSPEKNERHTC

Like-named read-outs stand apart in the source and are kept apart here. Results are given in words; binding and its absence hold for the method and conditions named. Binding seen in cells or lysates may run through a third protein. Here binding means that the protein was enriched with, or labelled near, the bait; the list need not be complete.

The source of these data is article PMC5562444.

Regarding “double-stranded RNA-dependent protein kinase PKR, endogenous (from UniProt P19525 1-551)”, the binding result in assay [1] is on record as “binds”.

B1: IKKβ, endogenous (protein, UniProt O14920 1-756)
chain: MSWSPSLTTQTCGAWEMKERLGTGGFGNVIRWHNQETGEQIAIKQCRQELSPRNRERWCLEIQIMRRLTHPNVVAARDVPEGMQNLAPNDLPLLAMEYCQGGDLRKYLNQFENCCGLREGAILTLLSDIASALRYLHENRIIHRDLKPENIVLQQGEQRLIHKIIDLGYAKELDQGSLCTSFVGTLQYLAPELLEQQKYTVTVDYWSFGTLAFECITGFRPFLPNWQPVQWHSKVRQKSEVDIVVSEDLNGTVKFSSSLPYPNNLNSVLAERLEKWLQLMLMWHPRQRGTDPTYGPNGCFKALDDILNLKLVHILNMVTGTIHTYPVTEDESLQSLKARIQQDTGIPEEDQELLQEAGLALIPDKPATQCISDGKLNEGHTLDMDLVFLFDNSKITYETQISPRPQPESVSCILQEPKRNLAFFQLRKVWGQVWHSIQTLKEDCNRLQQGQRAAMMNLLRNNSCLSKMKNSMASMSQQLKAKLDFFKTSIQIDLEKYSEQTEFGITSDKLLLAWREMEQAVELCGRENEVKLLVERMMALQTDIVDLQRSPMGRKQGGTLDDLEEQARELYRRLREKPRDQRTEGDSQEMVRLLLQAIQSFEKKVRVIYTQLSKTVVCKQKALELLPKVEEVVSLMNEDEKTVVRLQEKRQKELWNLLKIACSKVRGPVSGSPDSMNASRLSQPGQLMSQPSTASNSLPEPAKKSEELVAEAHNLCTLLENAIQDTVREQDQSFTALDWSWLQTEEEEHSCLEQAS
On to B1, for which the binding result in assay [2] is “binds”.
